Measurements reported in PubChem BioAssay AID977622 (Broad Institute, 2014).
The campaign covered roughly 1,900 compounds. Fewer than 10 were called active. Roughly 39% stayed inconclusive and do not appear here.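 The calls were made as follows: active = Green signal of the normal strain falls at least twice as much as red signal of the resistant mutant, with overall culture growth loss under a set limit; inconclusive = no clear call, values can overlap the other calls; inactive = the rest.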 The list shows a part of the results, in another mix than the full data.

test: wild-type E. coli growth inhibition versus h38 humanized strain – h38 mutant RFP, wild-type GFP, cherry-pick, dose response (AID 977622); conditions: E. coli WT ribosome GFP fluorescence, mixed culture, 24 h; at 50 µM (top of the series)

Row | Compound | activity change, negative = inhibition
1 | C[C@@H](Nc1nc(-c2ccccc2)nc2c1oc1ccccc12)C(=O)O | inactive: -3.34
2 | COc1ccc(C2=NN(C(=O)c3cccnc3)C(c3ccccc3)C2)cc1 (stereo unspecified) | inactive: -0.496
3 | Cc1ccc(NC(=O)CCCSc2ccccc2)cc1S(=O)(=O)N1CCOCC1 | inactive: 2.61
4 | COc1cccc(NC(=O)C(c2ccccc2)N2CCN(c3ccccn3)CC2)c1 (stereo unspecified) | inactive: -6.81
5 | OC(COc1ccc(Cl)cc1)CN1CCN(c2ccccn2)CC1 (stereo unspecified) | inactive: -12.3
6 | CN(C)S(=O)(=O)c1cccc(NC(=O)c2ccc3c(c2)S(=O)(=O)N=C2CCCCCN23)c1 | inactive: -1.75
7 | Cc1n[nH]c(C)c1S(=O)(=O)N1CCCC(C(=O)Nc2ccc(Br)cc2)C1 (stereo unspecified) | inactive: -10.5
8 | COc1ccc(CNC(=O)c2sc3nc4c(c(C(F)(F)F)c3c2N)CCC4)cc1OC | inactive: -5.32
9 | O=C(COc1cccc2c1CCN(Cc1ccccc1F)C2=O)N1CCCCC1 | inactive: 0.231
10 | COc1ccc(OC)c(-c2nn(-c3ccccc3)cc2C(=O)N2CCc3ccccc3C2)c1 | inactive: -5.75
11 | COC(=O)CN1C(=S)N(c2ccc(F)cc2)C(=O)C1CC(=O)Nc1ccc(OC)cc1 (stereo unspecified) | inactive: -5.3
12 | Cc1cccc(OCCC(=O)N(C)CC(=O)Nc2cccc3ccccc23)c1 | inactive: -8.41
13 | CCOc1ccccc1N1CC(C(=O)Nc2cccc(S(=O)(=O)N3CCCCC3)c2)CC1=O (stereo unspecified) | inactive: -4.5
14 | O=S(=O)(c1ccc(Cl)cc1)N1CCN=C1SCc1cccc(Cl)c1 | inactive: 1.26
15 | O=C(Nc1ccccc1N1CCOCC1)C1CCCCN1S(=O)(=O)c1ccccc1 (stereo unspecified) | inactive: -15.4
16 | COc1ccc(CC(=O)Nc2cc(S(=O)(=O)Nc3ccc(OC)cc3)ccc2OC)cc1 | inactive: 4.32
17 | CCN(CC)c1nc(Oc2ccc(C(=O)OC)cc2)nc(N2CCOCC2)n1 | inactive: -8.27
18 | Cc1ccc(Cc2c(-c3cccc(Br)c3)nc3ccc(C)cn23)cc1 | inactive: 2
19 | Cc1cc(C(=O)Nc2ccc(Cl)cc2)c(C)n1Cc1cccs1 | inactive: -7.89
20 | Cc1ccc(N2C(=S)NC3c4cc(Cl)ccc4OC2(C)C3C(=O)N(C)C)cc1 (stereo unspecified) | inactive: -10.7
21 | CC(=O)Nc1ccc(CNc2nc(NCCN(C)C)nc3cc(-c4ccccc4)sc23)cc1 | inactive: 4.04
22 | COc1ccc(C#Cc2ccc([C@H]3[C@@H](CO)N4CCCCN(C(=O)Nc5cccc(F)c5)C[C@H]34)cc2)cc1 | inactive: -1.39

Row | Compound | activity change, negative = inhibition
23 | COc1cc(OC)cc(-c2nc3ccccc3c(=O)n2OC(=O)c2ccc(C)c(C)c2)c1 | inactive: -3.36
24 | O=C(O)CC1(CC(=O)Nc2ccc3sccc3c2)CCCCC1 | inactive: -12.3
25 | Fc1ccc(Br)cc1SCCc1ccncc1 | inactive: -8.16
26 | C[C@@H]1CN([C@@H](C)CO)C(=O)c2cc(NS(=O)(=O)c3ccccc3)ccc2O[C@@H]1CN(C)Cc1ccc(C(=O)Nc2ccccc2N)cc1 | inactive: -3.33
27 | COc1cc2c(cc1OC)C1(C)N(CC2)C(C(C)=O)=NN1c1ccc(Cl)cc1 (stereo unspecified) | inactive: 2.13
28 | COc1ccccc1-c1noc2ncnc(Nc3cccc(C)c3C)c12 | inactive: 4.96
29 | N#Cc1nc(COc2cccc(Cl)c2)oc1N1CCCC1 | inactive: -4.18
30 | CCOC(=O)c1ccc(NC(=O)c2ccc(OC(C)C)c(OC)c2)cc1 | inactive: -2.49
31 | Cn1c(=O)c2c(ncn2CC(O)CNc2ccc(F)cc2)n(C)c1=O (stereo unspecified) | inactive: 6.36
32 | O=C(O)CC(CC(=O)Nc1ccc2ccccc2n1)c1ccccc1 (stereo unspecified) | inactive: 3.62
33 | Cc1ccc(S(=O)(=O)Nc2ccccc2CNc2cccc(C)n2)cc1 | inactive: -12.7
34 | CN1N=C2c3ccccc3CCC2C1c1ccc(F)cc1 (stereo unspecified) | inactive: -5.58
35 | CCOC(=O)C(CC)Sc1cc(C)nc2ccc(OC)cc12 (stereo unspecified) | inactive: -2
36 | CN(Cc1ccc([N+](=O)[O-])cc1)c1ccccc1 | inactive: -1.08
37 | COc1cccc(-c2ccc(NC(=O)C3CCCN(Cc4cnn(C(C)C)c4)C3)cc2)c1 (stereo unspecified) | inactive: 2.6
38 | COc1ccc([C@H]2C[C@H](O)C[C@@H](CCn3cc(-c4ccccc4)nn3)O2)cc1 | inactive: 2.17
39 | O=C(Nc1c(S(=O)(=O)c2ccc(Cl)cc2)csc1Br)c1ccccc1Cl | inactive: 7.56
40 | Cc1cc(C)cc(NC(=O)COC(=O)CC2CCCC2)c1 | inactive: -3.69
41 | NS(=O)(=O)c1ccc(NC(=O)c2cc(Cl)sc2Cl)cc1 | inactive: -3.66
42 | Cc1ccc(S(=O)(=O)NC(C)C(=O)NCc2ccc(Cl)cc2)cc1 (stereo unspecified) | inactive: -10.9
43 | CC1CCCC(NC(=O)COC(=O)[C@@H]2CC(O)CN2S(=O)(=O)c2ccc3c(c2)OCCO3)C1C (stereo partly specified) | inactive: -1.15
44 | Cc1ccc2oc(=O)n(CCCOc3ccccc3C)c2c1 | inactive: -7.75

Row | Compound | activity change, negative = inhibition
45 | COC(=O)c1ccc2nc(-c3ccc(F)cc3)c(Cc3cccc(F)c3)n2c1 | inactive: 1.79
46 | CCc1nc2ccccc2c(C(=O)OCC(=O)NC(=O)c2cccn2C)c1C | inactive: -12.3
47 | Cc1ccc(NC(=O)c2ccccc2F)c(NC(=O)c2ccccc2F)c1 | inactive: -1.05
48 | CNC(=O)c1ccsc1NC(=O)c1ccc(S(=O)(=O)N2CCc3ccccc32)cc1 | inactive: -14.8
49 | Cc1cc(SCC(=O)c2cccs2)n2nc(C)c(-c3ccc(Cl)cc3)c2n1 | inactive: 0.716
50 | CCOC(=O)Cc1csc(SCC(=O)Nc2cc(C)ccc2OC)n1 | inactive: 4.94
51 | Cc1onc(-c2ccccc2Cl)c1C(=O)OCC(=O)c1ccccc1 | inactive: -4.52
52 | CC(=O)Oc1ccc(N(c2ccccc2)S(=O)(=O)c2ccc(C)cc2)cc1 | inactive: -9.59
53 | O=C(COc1ccc(Br)cc1)Nc1ccc(C(=O)Nc2ccccc2C(=O)O)cc1 | inactive: -7.1
54 | CCOc1ccc2[nH]c3c(NCCN(C)C)ncnc3c2c1 | inactive: 6.49
55 | Cc1cc(C(N)=O)nn1-c1c(Cl)cc(Cl)cc1Cl | inactive: -2.24
56 | CC1Cc2cc(S(=O)(=O)N3CCN(c4cccc(Cl)c4)CC3)ccc2N1C(=O)C1CC1 (stereo unspecified) | inactive: -2.93
57 | COc1cc(CC(=O)Nc2nc(C)cs2)cc(OC)c1OC | inactive: -3.89
58 | CN1OC[C@@H]2CN(C(=O)c3ccco3)[C@H](c3ccc(-c4ccc(C#N)cc4)cc3)C[C@@H]21 | inactive: -3.66
59 | C[C@H]1CN([C@@H](C)CO)C(=O)CCCn2nncc2CO[C@@H]1CN(C)Cc1ccccc1C(F)(F)F | inactive: 0.129
60 | CC1(C(=O)NS(=O)(=O)c2cccc(F)c2)CCN1C(=O)C1(c2ccc(Cl)cc2)CCC1 (stereo unspecified) | inactive: -8.6
61 | O=C(Nc1ccn(Cc2ccc(Cl)cc2)n1)c1ccccc1 | inactive: -5.44
62 | O=C(CCC(=O)N1CCN(c2ccc(F)cc2)CC1)c1ccc(F)cc1 | inactive: 1.29
63 | COc1ccc(C2CC(c3ccc(Br)cc3)=NN2C(=O)CN2CCCC2)cc1 (stereo unspecified) | inactive: -0.922
64 | O=C(NCCCN1CCOCC1)c1sc2cc([N+](=O)[O-])ccc2c1Cl | inactive: -5.45
65 | C[C@@H]1CN([C@@H](C)CO)C(=O)c2cccc(NC(=O)c3nc4ccccc4s3)c2O[C@@H]1CN(C)CC1CC1 | inactive: -4.26
66 | COc1cc[n+]([O-])cc1[N+](=O)[O-] | inactive: -1.72

Row | Compound | activity change, negative = inhibition
67 | COc1ccc(C(=O)COc2ccc(F)cc2)c(O)c1 | inactive: -9.25
68 | Cc1ccc(NS(=O)(=O)c2ccc3c(c2)CCC(=O)N3)cc1C | inactive: -10.7
69 | Cc1noc(C)c1S(=O)(=O)N(Cc1ccccc1)C(C)C | inactive: -5.07
70 | CC(NC(=O)c1ccc(CS(=O)(=O)c2ccc(Cl)cc2)o1)c1ccc2c(c1)OCCO2 (stereo unspecified) | inactive: 10.6
71 | C=CCN(c1ccccc1)S(=O)(=O)c1ccc(Cl)c(C(=O)OCC(=O)NCCCN2CCCC2=O)c1 | inactive: -4.56
72 | CCCN1C(=O)C(O)(c2c(C)[nH]c3ccccc23)c2ccccc21 (stereo unspecified) | inactive: -8.52
73 | CCOc1ccc(-c2nc(-c3cccs3)c(CC(=O)O)s2)cc1OC | inactive: -8.31
74 | COC(=O)c1cc(C)sc1NC(=O)CC1Nc2ccccc2NC1=O (stereo unspecified) | inactive: 8.03
75 | CCc1nnc(NC(=O)CSc2ncc(-c3ccccc3)[nH]2)s1 | inactive: -5.52
76 | COc1cccc(NC(=O)C2CCC(CNS(=O)(=O)c3cccc4cccnc34)CC2)c1 (stereo unspecified) | inactive: -7.46
77 | NS(=O)(=O)c1ccc(CCNC(=O)CCCCCNc2nc(=S)[nH]c3ccccc23)cc1 | inactive: -8.09
78 | COC(=O)c1nc(-c2ccc(C)cc2)[nH]c1C(C)(C)C | inactive: -3.72
79 | Cc1ccc(C(=O)NCC(=O)OCC(=O)Nc2cccc(S(=O)(=O)N3CCCC3)c2)cc1C | inactive: -7.61
80 | Fc1ccccc1C1CCN(Cc2nc(CC3CC3)no2)C1 (stereo unspecified) | inactive: -4.21
81 | CC1(c2ccc3ccccc3c2)NC(=O)N(CC(=O)N2CCN(c3ccccc3O)CC2)C1=O (stereo unspecified) | inactive: -9.76
82 | COc1ccc(CN2C(=O)CC(Cc3cc(C)cc(C)c3)C2=O)cc1OC (stereo unspecified) | inactive: 5.15
83 | Cc1cc2nc(SCC(=O)O)nc(C)c2cc1C | inactive: -8.84
84 | O=C(COC(=O)c1ccc(O)cc1)Nc1ccccc1 | inactive: 5.16
85 | NC(=O)C1CCN(c2cc(Cl)ccc2[N+](=O)[O-])CC1 | inactive: 7.8
86 | CCN(CC)S(=O)(=O)c1ccc(O)c(C(=O)OCC(=O)NC23CC4CC(CC(C4)C2)C3)c1 | inactive: -3.51
87 | Fc1ccc(-c2nc3c(Cl)cc(C(F)(F)F)cn3c2Cc2ccsc2)cc1 | inactive: 3.36
88 | Cc1cc(C)cc(NS(=O)(=O)c2c(C(=O)N3CCCCCC3)c(C)n(C)c2C)c1 | inactive: 2.81

Row | Compound | activity change, negative = inhibition
89 | CCNc1nc(N)c(C(=O)C23CC4CC(CC(C4)C2)C3)s1 | inactive: -5.98
90 | COc1ccccc1CC(=O)NCCc1c[nH]c2ccccc12 | inactive: -3.6
91 | O=C(c1cccs1)c1c[nH]cc1-c1ccccc1 | inactive: 4.25
92 | COCc1nnc(NC(=O)c2ccc(S(=O)(=O)N3CCCC3)cc2)o1 | inactive: -3.2
93 | Cc1cccc(N2CCN(Cc3nc(-c4ccc(F)cc4F)oc3C)CC2)n1 | inactive: -5.91
94 | O=C(Nc1cccc(Cl)c1)N1C[C@@H]2[C@H](c3ccccc31)[C@H](CO)N2Cc1ccncc1 | inactive: -5.1
95 | Cc1ncoc1C(=O)NCCC(c1ccccc1)c1ccccc1 | inactive: -15.8
96 | CCOC(=O)c1sc(Nc2cccc(Cl)c2)nc1C | inactive: 1.1
97 | O=C(NC1CCCCC1)C(c1cccc2ccccc12)n1c(=O)c(-c2ccco2)nc2ccccc21 (stereo unspecified) | inactive: -4.51
98 | O=C(O)CNC(=O)C(c1ccccc1)c1ccccc1 | inactive: -1.41
99 | CSc1ccccc1NC(=O)CN(c1cccc(C)c1)S(C)(=O)=O | inactive: -9.25
100 | COc1ccc(NS(=O)(=O)c2ccc(Cl)c(NC(=O)c3ccccc3F)c2)cc1 | inactive: -11.4
101 | CSc1ccc(CN(C)CC(=O)NC(C)c2ccccc2)cc1 (stereo unspecified) | inactive: -1.1
102 | O=C(c1cc(COc2ccc(F)cc2F)on1)N1CCCC(c2ccccc2)C1 (stereo unspecified) | inactive: 5.75
103 | CN(C)S(=O)(=O)c1cccc(C(=O)Nc2ccc(C(=O)Nc3cccc(S(N)(=O)=O)c3)cc2)c1 | inactive: -4.39
104 | O=C(CN(c1ccc(F)cc1)S(=O)(=O)c1ccccc1)Nc1ccccc1C(=O)O | inactive: -6.83
105 | O=C(CSc1nnc(COc2cccc3cccnc23)o1)c1ccc(F)cc1 | inactive: -6.29
106 | Cc1ccn2cc(-c3cccc(NC(=O)c4cccs4)c3)nc2c1 | inactive: -3.23

An excerpt of these results, as tab-separated lines:
Row	Compound	activity change, negative = inhibition
98	O=C(O)CNC(=O)C(c1ccccc1)c1ccccc1	inactive: -1.41
99	CSc1ccccc1NC(=O)CN(c1cccc(C)c1)S(C)(=O)=O	inactive: -9.25
100	COc1ccc(NS(=O)(=O)c2ccc(Cl)c(NC(=O)c3ccccc3F)c2)cc1	inactive: -11.4
101	CSc1ccc(CN(C)CC(=O)NC(C)c2ccccc2)cc1 (stereo unspecified)	inactive: -1.1
102	O=C(c1cc(COc2ccc(F)cc2F)on1)N1CCCC(c2ccccc2)C1 (stereo unspecified)	inactive: 5.75
103	CN(C)S(=O)(=O)c1cccc(C(=O)Nc2ccc(C(=O)Nc3cccc(S(N)(=O)=O)c3)cc2)c1	inactive: -4.39
